PubChem BioAssay AID1259425 – University of Nebraska Medical Center | 2018

Test: 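Compare each knockdown with KSR1 silencing using changes in marker transcripts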 (primary screen)
Cell system: HCT116 human colon cancer cells
Reagents: siRNA pool against human genes, 50 nM siRNA
Measurement: 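After 50 nM siRNA pool, branched-DNA assay measures six marker transcripts per well, minus blank, normalised to the geometric mean of two housekeeping transcripts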
Reading the numbers: BNIP3L mRNA: higher = more BNIP3L transcript after knockdown; NDRG1 mRNA: higher = more NDRG1 transcript after knockdown; BNIP3 mRNA: higher = more BNIP3 transcript after knockdown; ALDOC mRNA: higher = more ALDOC transcript after knockdown; ACSL5 mRNA: higher = more ACSL5 transcript after knockdown
The deposit covers about 14,000 reagents; shown is an unselected part. A reagent listed more than once was tested more than once; the source does not tell the runs apart. Not given: the time to read-out.

| target | BNIP3L mRNA, set 1 | NDRG1 mRNA, set 1 | BNIP3 mRNA, set 1 | ALDOC mRNA, set 1 | ACSL5 mRNA, set 1 |
| --- | --- | --- | --- | --- | --- |
| TOMM22 (translocase of outer mitochondrial membrane 22) | 0.301 | 0.123 | 0.314 | 0.0197 | 0.16 |
| PLCL1 (phospholipase C like 1 (inactive)) | 0.14 | 0.231 | 0.284 | 0.0112 | 0.151 |
| CACHD1 (cache domain containing 1) | 0.0852 | 0.0746 | 0.318 | 0.0142 | 0.145 |
| PCDH11Y (protocadherin 11 Y-linked) | 0.0758 | 0.368 | 0.317 | 0.0152 | 0.15 |
| EPHA4 (EPH receptor A4) | 0.133 | 0.155 | 0.185 | 0.00658 | 0.337 |
| CERT1 (ceramide transporter 1) | 0.0657 | 0.11 | 0.128 | 0.00191 | 0.0451 |
| PAK1IP1 (PAK1 interacting protein 1) | 0.0924 | 0.325 | 0.146 | 0.0468 | 0.0922 |
| SLC25A38 | 0.0577 | 0.352 | 0.314 | 0.0146 | 0.308 |
| SH3BGRL (SH3 domain binding glutamate rich protein like) | 0.0768 | 0.264 | 0.357 | 0.0805 | 0.131 |
| ARHGEF26 (Rho guanine nucleotide exchange factor 26) | 0.051 | 0.131 | 0.251 | 0.0131 | 0.191 |
| ZNF678 (zinc finger protein 678) | 0.128 | 0.17 | 0.191 | 0.0384 | 0.128 |
| ADAMTSL3 (ADAMTS like 3) | 0.0845 | 0.0929 | 0.384 | 0.0447 | 0.114 |
| ADAMTSL3 (ADAMTS like 3) | 0.123 | 0.226 | 0.366 | 0.0742 | 0.201 |
| NEUROD6 (neuronal differentiation 6) | 0.0639 | 0.133 | 0.331 | 0.0229 | 0.266 |
| MARK1 (microtubule affinity regulating kinase 1) | 0.0403 | 0.168 | 0.299 | 0.0188 | 0.366 |
| EPB41L5 (erythrocyte membrane protein band 4.1 like 5) | 0.1 | 0.105 | 0.378 | 0.0341 | 0.0857 |
| RBP4 (retinol binding protein 4) | 0.137 | 0.147 | 0.243 | 0.00155 | 0.0717 |

A run of entries taken from the entries so far, as a working copy:
| target | BNIP3L mRNA, set 1 | NDRG1 mRNA, set 1 | BNIP3 mRNA, set 1 | ALDOC mRNA, set 1 | ACSL5 mRNA, set 1 |
| --- | --- | --- | --- | --- | --- |
| ARHGEF26 (Rho guanine nucleotide exchange factor 26) | 0.051 | 0.131 | 0.251 | 0.0131 | 0.191 |
| ZNF678 (zinc finger protein 678) | 0.128 | 0.17 | 0.191 | 0.0384 | 0.128 |
| ADAMTSL3 (ADAMTS like 3) | 0.0845 | 0.0929 | 0.384 | 0.0447 | 0.114 |

Next results follow.
| target | BNIP3L mRNA, set 1 | NDRG1 mRNA, set 1 | BNIP3 mRNA, set 1 | ALDOC mRNA, set 1 | ACSL5 mRNA, set 1 |
| --- | --- | --- | --- | --- | --- |
| MMP25 (matrix metallopeptidase 25) | 0.194 | 0.22 | 0.198 | 0.0192 | 0.0543 |
| IFIT2 (interferon induced protein with tetratricopeptide repeats 2) | 0.286 | 1.14 | 0.26 | 0.0986 | 0.251 |
| DBT (dihydrolipoamide branched chain transacylase E2) | 0.0662 | 0.113 | 0.232 | 0.0174 | 0.176 |
| FJX1 (four-jointed box kinase 1) | 0.21 | 0.19 | 0.336 | 0.0288 | 0.206 |
| ANAPC13 (anaphase promoting complex subunit 13) | 0.127 | 0.327 | 0.553 | 0.0378 | 0.128 |
| PRELID1 (PRELI domain containing 1) | 0.111 | 0.121 | 0.194 | 0.0275 | 0.221 |
| USP21 (ubiquitin specific peptidase 21) | 0.124 | 0.283 | 0.233 | 0.0397 | 0.22 |
| HES7 (hes family bHLH transcription factor 7) | 0.126 | 0.243 | 0.244 | 0.0138 | 0.28 |
| YBX1 (Y-box binding protein 1) | 0.19 | 0.232 | 0.732 | 0.022 | 0.136 |
| SPHK2 (sphingosine kinase 2) | 0.171 | 0.165 | 0.38 | 0.0088 | 0.399 |
| RNASET2 (ribonuclease T2) | 0.0758 | 0.165 | 0.235 | 0.0273 | 0.13 |
| SYNE1 (spectrin repeat containing nuclear envelope protein 1) | 0.0922 | 0.23 | 0.338 | 0.0651 | 0.245 |
| NVL (nuclear VCP like) | 0.103 | 0.231 | 0.307 | 0.0546 | 0.117 |
| HLA-DPB2 | 0.0556 | 0.278 | 0.307 | 0.0157 | 0.223 |
| CALU (calumenin) | 0.0471 | 0.705 | 0.545 | 0.0388 | 0.0972 |
| TMEM230 (transmembrane protein 230) | 0.101 | 0.113 | 0.216 | 0.0228 | 0.224 |
| SLC67A1-AS (SLC67A1 antisense RNA) | 0.0323 | 0.185 | 0.206 | 0.0278 | 0.241 |
